According to PubChem BioAssay AID540276 (National Center for Advancing Translational Sciences (NCATS), 2011):
Hit rate of the full screen: of about 300,000 compounds, about 5,400 (1.8%) were called active. The shares of active, inactive and inconclusive entries below differ from those in the screen. The call rests on the fitted dose curve; tested in HEK293 cells. Potencies beside an inconclusive call are fits to weak or partial responses and may not hold up.

Assay: qHTS for inhibitors of binding or entry into cells for Marburg Virus
Settings: Marburg virus pseudotyped entry inhibition, cell reporter; series mostly up to 37.8 µM
Potency means the concentration at half of the fitted maximal effect.

Row | SMILES | Potency
1 | Cc1nn(-c2cccc3cccnc23)c(=O)c2ccccc12 | inconclusive: 11.2 µM [activator, partial curve, poor fit]
2 | O=C(Nc1nnc(C2CCCCC2)s1)c1cccs1 | inconclusive: 0.73 µM [activator, full curve]
3 | CC(C)CN1CCN(Cc2cn(C)c3ccccc23)CC1CCO (stereo unspecified) | inactive
4 | CCCCOP(=O)(OCCCC)C1(C)CC(=O)CC(C)(C)C1 (stereo unspecified) | inconclusive: 6.31 µM [inhibitor, single point]
5 | COc1cc(C(=O)OCC(=O)Nc2ccc(SC(F)F)cc2)cc(OC)c1OC | inconclusive: 1.26 µM [inhibitor, single point]
6 | COCCOC1CCN(C(=O)c2cc(COc3ccc(F)cc3F)on2)CC1 | inactive
7 | Cc1ccc(S(=O)(=O)CC(=O)N2CCN(c3ccc(F)cc3)CC2)cc1 | inactive
8 | CC(C)(C)C(=O)COc1ccccc1[N+](=O)[O-] | inconclusive: 35.5 µM [inhibitor, single point]
9 | CCOc1ccc2c(c1)c(=O)c(C(=O)c1ccc(CC)cc1)cn2CC(=O)Nc1ccccc1OC | inconclusive: 35.5 µM [activator, single point]
10 | COc1ccc(C(=O)NCS(=O)(=O)c2ccc(C)cc2)cc1 | inactive
11 | COc1ccc(CN(C)C(=O)c2ccc(NC(=O)CC3SC(N4CCCC4)=NC3=O)cc2)c(OC)c1OC (stereo unspecified) | inconclusive: 1.26 µM [activator, single point]
12 | CCOC(=O)c1ccc2c(c1)nc(SCC(=O)c1cc3ccccc3o1)n2CC | inconclusive: 18.3 µM [inhibitor, partial curve, poor fit]
13 | COc1cccc(C=Nc2cc(C)cc(C)c2)c1O | inconclusive: 1.26 µM [activator, partial curve, poor fit]
14 | CCOc1ccc(C(=O)c2cn(CC(=O)Nc3ccc4c(c3)OCO4)c3ccc(OC)cc3c2=O)cc1 | inactive
15 | COc1ccc(OC)c(/C=N/NC(=O)c2cnccn2)c1 | inactive
16 | CCN(CC)C(c1ccc(F)cc1)c1nnnn1C1CCCCC1 (stereo unspecified) | inactive
17 | COc1ccc(-n2c(Cc3cccn3C)nnc2SCC(=O)NC2CCCCC2)cc1 | inactive
18 | COC(=O)[C@@H]1CC[C@H](C)[C@@H](c2ccc(C)cc2)N1C(=O)c1ccc(/C=N\OC[C@@H](O)COCc2ccco2)cc1 | inconclusive: 7.5 µM [inhibitor, partial curve, poor fit]
19 | COc1cccc(N2CCN(C(=O)C3CCCN(S(=O)(=O)c4cccc5nsnc45)C3)CC2)c1 (stereo unspecified) | inconclusive: 35.5 µM [inhibitor, single point]
20 | OC1CCCN(Cc2ccc3ccc4cccc5ccc2c3c45)C1 (stereo unspecified) | inconclusive: 29.1 µM [inhibitor, single point]
21 | C=CCc1cccc(/C=N/NC(=O)C(C)Nc2cccc(C)c2)c1O (stereo unspecified) | inconclusive: 11.2 µM [inhibitor, partial curve, poor fit]
22 | CC(=O)Nc1ccc2c(c1)Cc1cc(N3C(=O)C=CC3=O)ccc1-2 | inconclusive: 35.5 µM [inhibitor, single point]
23 | O=C(CN1CCN(c2ccccn2)CC1)Nc1ccc2ccccc2c1 | inconclusive: 35.5 µM [activator, single point]
24 | O=C(COc1ccccc1/C=C1\SC(=S)NC1=O)Nc1ccc(F)cc1 | inconclusive: 35.5 µM [inhibitor, single point]

Retrieved by compound from the list above, 3 records:
Row | SMILES | Potency
13 | COc1cccc(C=Nc2cc(C)cc(C)c2)c1O | inconclusive: 1.26 µM [activator, partial curve, poor fit]
16 | CCN(CC)C(c1ccc(F)cc1)c1nnnn1C1CCCCC1 (stereo unspecified) | inactive
4 | CCCCOP(=O)(OCCCC)C1(C)CC(=O)CC(C)(C)C1 (stereo unspecified) | inconclusive: 6.31 µM [inhibitor, single point]

The list continues.

Row | SMILES | Potency
25 | CSc1nncc(/C(C)=N\Nc2cccc(C)c2)n1 | inactive
26 | C[C@H](N)c1cccc(Cl)c1Cl | inactive
27 | O=C(Nc1ccccc1Oc1ccccc1)c1ccc(Br)o1 | inconclusive: 28.2 µM [inhibitor, single point]
28 | Cc1ccccc1Nc1c(-c2cccc(Cl)c2)nc2ncccn12 | inactive
29 | O=C(Nc1ccc(OC(F)(F)C(F)F)c(NC(=O)c2ccc(F)cc2)c1)c1ccc(F)cc1 | inconclusive: 29.1 µM [inhibitor, single point]
30 | Cc1c(O)c2ccccc2oc1=O | inactive
31 | C[C@H](NC(=O)C1CC(=O)N(c2ccc3c(c2)OCCO3)C1)C(=O)N1CCCCC1 (stereo partly specified) | inconclusive: 12.6 µM [activator, single point]
32 | Cc1cc(Br)ccc1NC(=O)CN(C)C(=O)COc1cccc2c1OC(C)(C)C2 | inconclusive: 3.98 µM [inhibitor, single point]
33 | CC(C)(C)c1nnc2sc(SCC(=O)N3CCc4ccccc43)nn2c1=O | inconclusive: 5.62 µM [activator, single point]
34 | CC(=O)c1ccc(-c2nc3c4ccccc4ccn3c2C(C)=O)o1 | active: 1 µM
35 | CC(=O)CCSc1ncnc2sc(-c3ccccc3)cc12 | inconclusive: 3.98 µM [activator, partial curve, poor fit]
36 | COc1ccc(NC(=O)CSc2ncc(-c3ccc(F)cc3)n2Cc2ccco2)cc1 | inconclusive: 14.1 µM [inhibitor, single point]
37 | COc1ccc(N2CCN(C(=O)C(OC(C)=O)c3ccccc3)CC2)cc1 (stereo unspecified) | inactive
38 | CSc1nnc2c(n1)OC(C)N(C(=O)c1ccccc1)c1ccccc1-2 (stereo unspecified) | inactive
39 | CN1CCN(c2ccc(NC(=O)c3ccccc3Br)cc2)CC1 | inactive
40 | O=C(Cc1ccccc1)Nc1ccc(NC(=O)c2ccco2)cc1 | inconclusive: 10 µM [activator, partial curve, poor fit]
41 | Cc1cccc(C)c1NC(=O)COc1ccccc1C(=O)Nc1ccc(Br)cn1 | inconclusive: 0.1 µM [inhibitor, full curve, poor fit]
42 | Cc1ccc(C(=O)Cn2c(C(=O)OCCO)cc3ccccc32)cc1 | inconclusive: 1.78 µM [inhibitor, full curve]
43 | COc1ccc(S(=O)(=O)NCCSc2nnnn2-c2ccccc2)cc1OC | inactive
44 | Cc1cccc(NC(=O)CCC(=O)Nc2nnc(C(F)(F)F)s2)c1 | inconclusive: 14.1 µM [activator, partial curve, poor fit]
45 | O=P(O)(O)c1ccccc1OCCOCCOCCOCCOc1ccccc1P(=O)(O)O | inconclusive: 35.5 µM [activator, partial curve, poor fit]
46 | CCOc1ccc(Oc2ccccc2NC(=O)CSCC(=O)Nc2cc(C)on2)cc1 | inconclusive: 1 µM [inhibitor, full curve, poor fit]
47 | CCOC(=O)N1CCC(NC(=O)c2ccc3c(c2)N=C(CC)c2cc(C)ccc2S3)CC1 | inconclusive: 3.16 µM [inhibitor, single point]
48 | COc1ccc(CNC(=O)CCS(=O)(=O)c2cc(Br)cc3c2N(C(C)=O)C(C)C3)cc1 (stereo unspecified) | inconclusive: 3.55 µM [activator, single point]

Three entries out of the list, arranged by molar mass, low to high.
Row | SMILES | Potency
36 | COc1ccc(NC(=O)CSc2ncc(-c3ccc(F)cc3)n2Cc2ccco2)cc1 | inconclusive: 14.1 µM [inhibitor, single point]
32 | Cc1cc(Br)ccc1NC(=O)CN(C)C(=O)COc1cccc2c1OC(C)(C)C2 | inconclusive: 3.98 µM [inhibitor, single point]
48 | COc1ccc(CNC(=O)CCS(=O)(=O)c2cc(Br)cc3c2N(C(C)=O)C(C)C3)cc1 (stereo unspecified) | inconclusive: 3.55 µM [activator, single point]

(continued)

Row | SMILES | Potency
49 | CCCN(CCC)S(=O)(=O)c1cccc(-c2csc(C)n2)c1 | inconclusive: 35.5 µM [inhibitor, single point]
50 | CC1CCCCC12NC(=O)N(CC(=O)Nc1ccc(N3CCCCC3)cc1)C2=O (stereo unspecified) | inactive
51 | CC(C)(C)C(=O)N1CCc2cc(-c3csc(N)n3)ccc21 | inconclusive: 2 µM [inhibitor, full curve, poor fit]
52 | CCCCc1ccc(NC(=S)NCC2CCCO2)cc1 (stereo unspecified) | inactive
53 | COc1cccc2c1C(CCCC(=O)O)CCC2 (stereo unspecified) | inactive
54 | CC(=O)NC(CC(=O)OCC(=O)Nc1ccc2c(c1)OCO2)c1ccccc1 (stereo unspecified) | inactive
55 | Cc1ccc(N(Cc2cccs2)C(=O)C(C)Oc2ccc(Cl)c(C)c2)cc1 (stereo unspecified) | inconclusive: 10 µM [inhibitor, partial curve]
56 | COc1cc2[nH]c(=O)n(Cc3ccc(C(=O)N4CCN(c5ccc(Cl)cc5)CC4)cc3)c(=O)c2cc1OC | inconclusive: 35.5 µM [activator, single point]
57 | CCCCN(C(=O)c1cc(CC)c(C)s1)c1c(N)n(CCC)c(=O)[nH]c1=O | inactive
58 | CC1=C(C(=O)Nc2cccnc2)C(c2cccc(F)c2)n2nc(SCc3ccccc3F)nc2N1 (stereo unspecified) | inactive
59 | O=C(O)CCNc1ccc2c(c1)OCCO2 | inconclusive: 14.1 µM [inhibitor, single point]
60 | O=C(c1ccccc1Sc1ccccc1[N+](=O)[O-])N1CCCCC1 | inactive
61 | CC(C)c1ccc(Nc2nnc(SCC(=O)c3nnc(-c4ccccc4)o3)s2)cc1 | inconclusive: 0.316 µM [activator, partial curve, poor fit]
62 | Cc1cc(C)n(C(=O)/C(C#N)=C/N(C)C)n1 | inconclusive: 17.8 µM [activator, single point]
63 | FC(F)Sc1ccc(Nc2ncnc3nc[nH]c23)cc1 | inactive
64 | COc1ccc(/C=C2\CN(Cc3ccccc3)C/C(=C\c3ccc(OC)cc3)C2=O)cc1 | inconclusive: 15.8 µM [inhibitor, single point]
65 | CCN(CC(=O)Nc1ccc(OC)cc1)C(=O)c1ccccc1Sc1ccccc1C#N | inconclusive: 35.5 µM [inhibitor, partial curve, poor fit]
66 | CCCCN(C(=O)NC(=O)Nc1nc2ccc(OC)cc2s1)S(C)(=O)=O | inactive
67 | CCCc1nnc(NC(=O)c2cc(=O)c3ccccc3o2)s1 | inconclusive: 3.98 µM [activator, single point]
68 | CN(C)c1ccc(C(=O)OCC(=O)NC2CCCCCC2)cc1 | inconclusive: 0.708 µM [inhibitor, single point]
69 | Cc1cc(C)n2nc(N)c(N=Nc3ccc(Cl)cc3)c2n1 | inconclusive: 0.398 µM [activator, single point]
70 | COc1ccc(-c2oc3ccccc3c(=O)c2OC(C)=O)cc1 | inconclusive: 6.31 µM [activator, single point]
71 | Cc1cccc(/C=N/NC(=O)c2ccc(NC(=O)c3ccccc3C)cc2)n1 | inactive
